According to PMC10427625, “Structural basis for negative regulation of the Escherichia coli maltose system” (Nature Communications, 2023):
Results are given in words; binding and its absence hold for the method and conditions named. Where a sequence is shown, tags or fusion partners need not be part of it.

B1: MalT-R143A, N-terminally His-tagged (natural protein, Escherichia coli, UniProt P06993 1-901, looked up)
chain: MLIPSKLSRPVRLDHTVVRERLLAKLSGANNFRLALITSPAGYGKTTLISQWAAGKNDIGWYSLDEGDNQQERFASYLIAAVQQATNGHCAICETMAQKRQYASLTSLFAQLFIELAEWHSPLYLVIDDYHLITNPVIHESMAFFIRHQPENLTLVVLSRNLPQLGIANLRVRDQLLEIGSQQLAFTHQEAKQFFDCRLSSPIEAAESSRICDDVSGWATALQLIALSARQNTHSAHKSARRLAGINASHLSDYLVDEVLDNVDLATRHFLLKSAILRSMNDALITRVTGEENGQMRLEEIERQGLFLQRMDDTGEWFCYHPLFGNFLRQRCQWELAAELPEIHRAAAESWMAQGFPSEAIHHALAAGDALMLRDILLNHAWSLFNHSELSLLEESLKALPWDSLLENPQLVLLQAWLMQSQHRYGEVNTLLARAEHEIKDIREDTMHAEFNALRAQVAINDGNPDEAERLAKLALEELPPGWFYSRIVATSVLGEVLHCKGELTRSLALMQQTEQMARQHDVWHYALWSLIQQSEILFAQGFLQTAWETQEKAFQLINEQHLEQLPMHEFLVRIRAQLLWAWARLDEAEASARSGIEVLSSYQPQQQLQCLAMLIQCSLARGDLDNARSQLNRLENLLGNGKYHSDWISNANKVRVIYWQMTGDKAAAANWLRHTAKPEFANNHFLQGQWRNIARAQILLGEFEPAEIVLEELNENARSLRLMSDLNRNLLLLNQLYWQAGRKSDAQRVLLDALKLANRTGFISHFVIEGEAMAQQLRQLIQLNTLPELEQHRAQRILREINQHHRHKFAHFDENFVERLLNHPEVPELIRTSPLTQREWQVLGLIYSGYSNEQIAGELEVAATTIKTHIRNLYQKLGVAHRQDAVQHAQQLLKMMGYGV
notes: MalT of Escherichia coli, variant of plasmid pOM206 made by site-directed mutagenesis; source: E. coli BL21 (DE3) ΔmalT220, purified (Ni Sepharose, gel filtration)
B2: MalT-R143A/R173A, N-terminally His-tagged (protein, UniProt P06993 1-901)
chain: MLIPSKLSRPVRLDHTVVRERLLAKLSGANNFRLALITSPAGYGKTTLISQWAAGKNDIGWYSLDEGDNQQERFASYLIAAVQQATNGHCAICETMAQKRQYASLTSLFAQLFIELAEWHSPLYLVIDDYHLITNPVIHESMAFFIRHQPENLTLVVLSRNLPQLGIANLRVADQLLEIGSQQLAFTHQEAKQFFDCRLSSPIEAAESSRICDDVSGWATALQLIALSARQNTHSAHKSARRLAGINASHLSDYLVDEVLDNVDLATRHFLLKSAILRSMNDALITRVTGEENGQMRLEEIERQGLFLQRMDDTGEWFCYHPLFGNFLRQRCQWELAAELPEIHRAAAESWMAQGFPSEAIHHALAAGDALMLRDILLNHAWSLFNHSELSLLEESLKALPWDSLLENPQLVLLQAWLMQSQHRYGEVNTLLARAEHEIKDIREDTMHAEFNALRAQVAINDGNPDEAERLAKLALEELPPGWFYSRIVATSVLGEVLHCKGELTRSLALMQQTEQMARQHDVWHYALWSLIQQSEILFAQGFLQTAWETQEKAFQLINEQHLEQLPMHEFLVRIRAQLLWAWARLDEAEASARSGIEVLSSYQPQQQLQCLAMLIQCSLARGDLDNARSQLNRLENLLGNGKYHSDWISNANKVRVIYWQMTGDKAAAANWLRHTAKPEFANNHFLQGQWRNIARAQILLGEFEPAEIVLEELNENARSLRLMSDLNRNLLLLNQLYWQAGRKSDAQRVLLDALKLANRTGFISHFVIEGEAMAQQLRQLIQLNTLPELEQHRAQRILREINQHHRHKFAHFDENFVERLLNHPEVPELIRTSPLTQREWQVLGLIYSGYSNEQIAGELEVAATTIKTHIRNLYQKLGVAHRQDAVQHAQQLLKMMGYGV
B3: MalT-K6A, N-terminally His-tagged (protein, UniProt P06993 1-901)
chain: MLIPSALSRPVRLDHTVVRERLLAKLSGANNFRLALITSPAGYGKTTLISQWAAGKNDIGWYSLDEGDNQQERFASYLIAAVQQATNGHCAICETMAQKRQYASLTSLFAQLFIELAEWHSPLYLVIDDYHLITNPVIHESMRFFIRHQPENLTLVVLSRNLPQLGIANLRVRDQLLEIGSQQLAFTHQEAKQFFDCRLSSPIEAAESSRICDDVSGWATALQLIALSARQNTHSAHKSARRLAGINASHLSDYLVDEVLDNVDLATRHFLLKSAILRSMNDALITRVTGEENGQMRLEEIERQGLFLQRMDDTGEWFCYHPLFGNFLRQRCQWELAAELPEIHRAAAESWMAQGFPSEAIHHALAAGDALMLRDILLNHAWSLFNHSELSLLEESLKALPWDSLLENPQLVLLQAWLMQSQHRYGEVNTLLARAEHEIKDIREDTMHAEFNALRAQVAINDGNPDEAERLAKLALEELPPGWFYSRIVATSVLGEVLHCKGELTRSLALMQQTEQMARQHDVWHYALWSLIQQSEILFAQGFLQTAWETQEKAFQLINEQHLEQLPMHEFLVRIRAQLLWAWARLDEAEASARSGIEVLSSYQPQQQLQCLAMLIQCSLARGDLDNARSQLNRLENLLGNGKYHSDWISNANKVRVIYWQMTGDKAAAANWLRHTAKPEFANNHFLQGQWRNIARAQILLGEFEPAEIVLEELNENARSLRLMSDLNRNLLLLNQLYWQAGRKSDAQRVLLDALKLANRTGFISHFVIEGEAMAQQLRQLIQLNTLPELEQHRAQRILREINQHHRHKFAHFDENFVERLLNHPEVPELIRTSPLTQREWQVLGLIYSGYSNEQIAGELEVAATTIKTHIRNLYQKLGVAHRQDAVQHAQQLLKMMGYGV
B4: MalT-R19A, N-terminally His-tagged (protein, UniProt P06993 1-901)
chain: MLIPSKLSRPVRLDHTVVAERLLAKLSGANNFRLALITSPAGYGKTTLISQWAAGKNDIGWYSLDEGDNQQERFASYLIAAVQQATNGHCAICETMAQKRQYASLTSLFAQLFIELAEWHSPLYLVIDDYHLITNPVIHESMRFFIRHQPENLTLVVLSRNLPQLGIANLRVRDQLLEIGSQQLAFTHQEAKQFFDCRLSSPIEAAESSRICDDVSGWATALQLIALSARQNTHSAHKSARRLAGINASHLSDYLVDEVLDNVDLATRHFLLKSAILRSMNDALITRVTGEENGQMRLEEIERQGLFLQRMDDTGEWFCYHPLFGNFLRQRCQWELAAELPEIHRAAAESWMAQGFPSEAIHHALAAGDALMLRDILLNHAWSLFNHSELSLLEESLKALPWDSLLENPQLVLLQAWLMQSQHRYGEVNTLLARAEHEIKDIREDTMHAEFNALRAQVAINDGNPDEAERLAKLALEELPPGWFYSRIVATSVLGEVLHCKGELTRSLALMQQTEQMARQHDVWHYALWSLIQQSEILFAQGFLQTAWETQEKAFQLINEQHLEQLPMHEFLVRIRAQLLWAWARLDEAEASARSGIEVLSSYQPQQQLQCLAMLIQCSLARGDLDNARSQLNRLENLLGNGKYHSDWISNANKVRVIYWQMTGDKAAAANWLRHTAKPEFANNHFLQGQWRNIARAQILLGEFEPAEIVLEELNENARSLRLMSDLNRNLLLLNQLYWQAGRKSDAQRVLLDALKLANRTGFISHFVIEGEAMAQQLRQLIQLNTLPELEQHRAQRILREINQHHRHKFAHFDENFVERLLNHPEVPELIRTSPLTQREWQVLGLIYSGYSNEQIAGELEVAATTIKTHIRNLYQKLGVAHRQDAVQHAQQLLKMMGYGV
B5: MalT-R173A, N-terminally His-tagged (natural protein, Escherichia coli, UniProt P06993 1-901, looked up)
chain: MLIPSKLSRPVRLDHTVVRERLLAKLSGANNFRLALITSPAGYGKTTLISQWAAGKNDIGWYSLDEGDNQQERFASYLIAAVQQATNGHCAICETMAQKRQYASLTSLFAQLFIELAEWHSPLYLVIDDYHLITNPVIHESMRFFIRHQPENLTLVVLSRNLPQLGIANLRVADQLLEIGSQQLAFTHQEAKQFFDCRLSSPIEAAESSRICDDVSGWATALQLIALSARQNTHSAHKSARRLAGINASHLSDYLVDEVLDNVDLATRHFLLKSAILRSMNDALITRVTGEENGQMRLEEIERQGLFLQRMDDTGEWFCYHPLFGNFLRQRCQWELAAELPEIHRAAAESWMAQGFPSEAIHHALAAGDALMLRDILLNHAWSLFNHSELSLLEESLKALPWDSLLENPQLVLLQAWLMQSQHRYGEVNTLLARAEHEIKDIREDTMHAEFNALRAQVAINDGNPDEAERLAKLALEELPPGWFYSRIVATSVLGEVLHCKGELTRSLALMQQTEQMARQHDVWHYALWSLIQQSEILFAQGFLQTAWETQEKAFQLINEQHLEQLPMHEFLVRIRAQLLWAWARLDEAEASARSGIEVLSSYQPQQQLQCLAMLIQCSLARGDLDNARSQLNRLENLLGNGKYHSDWISNANKVRVIYWQMTGDKAAAANWLRHTAKPEFANNHFLQGQWRNIARAQILLGEFEPAEIVLEELNENARSLRLMSDLNRNLLLLNQLYWQAGRKSDAQRVLLDALKLANRTGFISHFVIEGEAMAQQLRQLIQLNTLPELEQHRAQRILREINQHHRHKFAHFDENFVERLLNHPEVPELIRTSPLTQREWQVLGLIYSGYSNEQIAGELEVAATTIKTHIRNLYQKLGVAHRQDAVQHAQQLLKMMGYGV
notes: as for B1

Legend:
[1] = molecular target: T1, N-terminally GST-tagged MalY (Escherichia coli) (UniProt P23256); experiment: pull-down; GST-tagged MalY incubated with an excess of WT or mutant MalT on ice for 30 min, Glutathione Sepharose 4B, buffer TKCl with 0.1 mM ADP and 10 μM PLP; elution with 20 mM glutathione, SDS-PAGE, Coomassie; both purified
T1 sequence: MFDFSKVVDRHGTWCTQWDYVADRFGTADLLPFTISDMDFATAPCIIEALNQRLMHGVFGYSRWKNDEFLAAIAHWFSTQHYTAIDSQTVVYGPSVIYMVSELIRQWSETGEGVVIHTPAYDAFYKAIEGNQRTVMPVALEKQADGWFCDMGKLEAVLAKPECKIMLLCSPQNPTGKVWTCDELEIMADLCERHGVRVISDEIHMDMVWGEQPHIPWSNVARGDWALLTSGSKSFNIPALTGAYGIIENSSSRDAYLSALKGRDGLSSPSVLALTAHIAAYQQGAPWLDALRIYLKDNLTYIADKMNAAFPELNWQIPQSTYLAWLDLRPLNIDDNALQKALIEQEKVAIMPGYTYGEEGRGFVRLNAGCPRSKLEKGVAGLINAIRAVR

[2] = molecular target: MalT-K6A, N-terminally His-tagged (Escherichia coli) (UniProt P06993); experiment: SEC; Superose 6 Increase 10/300 GL, 4 °C; MalT pre-incubated at 20 °C for 20 min in buffer I; run in buffer E with 1 mM maltotriose and 0.4 mM ATP; self-association of MalT; both purified
[3] = molecular target: MalT-R19A, N-terminally His-tagged (Escherichia coli) (UniProt P06993); experiment: as above

Binder	binding [1]	further results
B1	no binding	–
B2	no binding	–
B3	–	binding [2]: no binding
B4	–	binding [3]: no binding
B5	no binding	–
